Experimental data published in the supplement of paper PMC3741180, “A Novel High Throughput Biochemical Assay to Evaluate the HuR Protein-RNA Complex Formation” (PLoS ONE, 2013).
Some of the results follow. Most values lie within the scatter of the assay; repeated measurements hardly agree.

Amino acid sequences for entries named in this document (tags omitted).
UniProt Q15717, whole entry: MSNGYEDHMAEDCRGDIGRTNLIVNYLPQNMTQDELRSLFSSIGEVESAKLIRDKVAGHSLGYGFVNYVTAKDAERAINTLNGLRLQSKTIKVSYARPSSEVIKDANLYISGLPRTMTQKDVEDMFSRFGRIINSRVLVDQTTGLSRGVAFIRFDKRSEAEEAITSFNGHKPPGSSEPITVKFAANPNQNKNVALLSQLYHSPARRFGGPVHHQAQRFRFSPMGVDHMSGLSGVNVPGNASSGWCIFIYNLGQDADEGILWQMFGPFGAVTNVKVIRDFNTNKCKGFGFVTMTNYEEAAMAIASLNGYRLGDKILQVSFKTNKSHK

Target: HuR (ELAVL1) - TNFalpha ARE RNA complex (UniProt Q15717)
Test: AlphaScreen HuR-RNA complex signal Z-score relative to positive (Bi-TNF, DMSO) controls (Z-score (SD units of positive control)); higher = more complex signal
Conditions: screen stage: primary screen; compound concentration: 25 nM

Structure (SMILES) | AlphaScreen HuR-RNA complex signal Z-score
CCCNC(C)C(=O)Nc1ccccc1C (stereo not drawn) | -1.22
COc1ccc(CN(CCN(C)C)c2ccccn2)cc1 | 11.1
CC(COc1ccccc1)N(CCCl)Cc1ccccc1 (stereo not drawn) | 3.77
Nc1ncn([C@@H]2O[C@H](CO)[C@@H](O)[C@H]2O)c(=O)n1 | 0.698
CC(=O)c1ccc(S(=O)(=O)NC(=O)NC2CCCCC2)cc1 | -5.89
COc1cc(C(=O)O)cc(OC)c1O | 0.861
Cc1scc2c1N(C(=O)CN1CCN(C)CC1)c1ccccc1NC2=O | 0.854
Cn1c(=O)c2nc[nH]c2n(C)c1=O | 5.34
C=C1c2cccc(O)c2C(=O)C2=C(O)[C@]3(O)C(=O)C(C(N)=O)=C(O)[C@@H](N(C)C)[C@@H]3[C@@H](O)[C@H]12 | 0.116
c1ccc(C2CN3CCSC3=N2)cc1 (stereo not drawn) | 2.34
COc1cc2cc3c4cc(OC)c(OC)cc4cc[n+]3c(C)c2cc1OC | 1.79
NC1(C(=O)O)CCCC1 | 2
NCCCC[C@H](N[C@@H](CCc1ccccc1)C(=O)O)C(=O)N1CCC[C@H]1C(=O)O | 1.48
CC(C)(C)NC[C@H](O)COc1nsnc1N1CCOCC1 | 3.08
C[C@]12CCC(=O)C=C1CC[C@@H]1[C@@H]2[C@@H](O)C[C@@]2(C)[C@H]1CC[C@]2(O)C(=O)COC(=O)CCC(=O)O | -1.09
C[C@@]12CCc3occc3[C@H]1CC[C@@]13C[C@@H](CC[C@H]12)[C@@](O)(CO)C3 | 1.36
CO/N=C(\C(=O)N[C@@H]1C(=O)N2C(C(=O)O)=C(CSc3nc(=O)c(O)nn3C)CS[C@H]12)c1csc(N)n1 | 1.3
FC(F)(F)c1ccccc1-n1ccnc1 | 0.199
O=C(Cc1cccs1)N[C@@H]1C(=O)N2C(C(=O)[O-])=C(C[n+]3ccccc3)CS[C@H]12 | 1.13
O=C(O)CS | 3.05
COc1cc(-c2coc3cc(O)c(OC)c(O)c3c2=O)cc(O)c1OC | 1.48
CCOC(=O)OC(C)OC(=O)[C@@H]1N2C(=O)[C@@H](NC(=O)[C@H](N)c3ccccc3)[C@H]2SC1(C)C (stereo partly drawn) | 0.923
CC(C)CCC[C@@H](C)[C@H]1CC[C@H]2[C@@H]3CC[C@H]4C[C@H](O)CC[C@]4(C)[C@H]3CC[C@]12C | 1.61

Structure (SMILES) | AlphaScreen HuR-RNA complex signal Z-score
COC1=C(OC)C(=O)C(CCCCCCCCCCO)=C(C)C1=O | 1.27
CC(=O)N[C@@H](CC(C)C)C(=O)O | 1.66
Nc1nc(=O)c2nc(CNc3ccc(C(=O)N[C@@H](CCC(=O)O)C(=O)O)cc3)cnc2[nH]1 | 1.74
C=CC[S+]([O-])C[C@H](N)C(=O)O (mixture of isomers) | 1.23
COc1c2ccoc2nc2c(OC)c(OCC(O)C(C)(C)O)ccc12 (stereo not drawn) | 2.05
CC[C@H]1OC(=O)[C@H](C)[C@@H](O[C@H]2C[C@@](C)(OC)[C@@H](O)[C@H](C)O2)[C@H](C)[C@@H](O[C@@H]2O[C@H](C)C[C@H](N(C)C)[C@H]2O)[C@](C)(O)C[C@@H](C)/C(=N\OCOCCOC)[C@H](C)[C@@H](O)[C@]1(C)O | -1.64
O=C1CN2Cc3c(ccc(Cl)c3Cl)N=C2N1 | -2.94
C#CCCCCCCCCCCCC(O)CC(O)CO (stereo not drawn) | 1.14
CC(C)NCC(O)COc1ccc(COCCOC(C)C)cc1 (stereo not drawn) | -0.491
CC(=O)OC[C@@]1(O)C[C@@]23CC[C@@H]4c5ccoc5CC[C@@]4(C)[C@@H]2CC[C@@H]1C3 | -0.495
COc1ccc(-c2cc(=O)c3c(O)cc(O)cc3o2)cc1O | 1.77
COc1cc2ccc(=O)oc2c(OC)c1OC | 2.43
O=C(Cn1ccnc1[N+](=O)[O-])NCCO | 0.457
CC(=O)OCC(COC(C)=O)OC(C)=O | -1.52
O=c1cc(-c2ccc(O)cc2)oc2cc(O)cc(O)c12 | 3.62
CCOc1cccc(C(=O)c2ccc(O)c(O)c2O)c1 | 1.63
NC(=O)N1c2ccccc2C=Cc2ccccc21 | 0.312
CN(C)CCN(Cc1cccs1)c1ccccn1 | 1.48
COc1ccc2c(c1)OCc1c-2oc2cc(OC)ccc12 | 2.37
COc1ccc([C@H]2COc3c(ccc(O)c3OC)C2)c(OC)c1O | 2.42
O=c1c(O)cccc2cc(O)c(O)c(O)c12 | -4.89
Cc1ccc(S(=O)(=O)NC(=O)NN2CC3CCCC3C2)cc1 (stereo not drawn) | 2.25
COc1ccc(-c2cc(=O)c3c(O)cc(O)cc3o2)cc1 | 2.82

Structure (SMILES) | AlphaScreen HuR-RNA complex signal Z-score
CC(=O)N[C@@H](CC(=O)N[C@@H](CCC(=O)O)C(=O)O)C(=O)O | 2.86
Nc1nc(=O)c2[nH]c(=O)cnc2[nH]1 | 1.13
O=C(O)c1cc2ccccc2[nH]1 | 4.04
O=c1cc(-c2ccccc2)oc2cc(O)c(O)cc12 | 0.111
CCn1cc(C(=O)O)c(=O)c2cnc(N3CCNCC3)nc21 | 3.49
COc1cc2nc(N3CCN(C(=O)c4ccco4)CC3)nc(N)c2cc1OC | 5.49
NCCS(=O)(=O)O | 0.588
CC(=O)Oc1ccc2c(c1C(C)C)CCC1C(C)(C)CCC[C@]21C (stereo partly drawn) | 2.56
CCN(CC)CCNC(=O)c1cc(S(C)(=O)=O)ccc1OC | 1.04
O=C(CCCN1CC=C(n2c(=O)[nH]c3ccccc32)CC1)c1ccc(F)cc1 | 0.552
Oc1c(I)cc(I)c2cccnc12 | -3.49
C#CCN(C)Cc1ccccc1 | 2.95
CC(=O)O[C@H]1CC[C@@]2(C)[C@H](CC[C@@H]3[C@@H]2CC[C@]2(C)[C@@H]4[C@H](C[C@@H]32)O[C@]2(CC[C@@H](C)CO2)[C@H]4C)C1 | 1.61
CCCCCC(C)N (stereo not drawn) | -1.31
COc1ccc2cc(CCC(C)=O)ccc2c1 | 0.458
O=C(O)CCC(=O)OC[C@@H](NC(=O)C(Cl)Cl)[C@H](O)c1ccc([N+](=O)[O-])cc1 | -3.14
CCn1cc(C(=O)O)c(=O)c2ccc(C)nc21 | -0.41
CCOc1ccc(C(=O)c2cc(O)c(OC)c(OC)c2O)cc1 | 1.58
COc1ccc(-c2oc3c(CC=C(C)C)c(O[C@@H]4O[C@H](CO)[C@@H](O)[C@H](O)[C@H]4O)cc(O)c3c(=O)c2O[C@@H]2O[C@@H](C)[C@H](O)[C@@H](O)[C@H]2O)cc1 | 0.949
C[C@H]1[C@@H](O)O[C@@H]2O[C@@]3(C)CC[C@H]4[C@H](C)CC[C@@H]1[C@@]24OO3 | 2.16
CCN(Cc1ccncc1)C(=O)C(CO)c1ccccc1 (stereo not drawn) | -3.06
Cc1ncc([N+](=O)[O-])n1CCO | 3.02

Pulled by compound from above:
Structure (SMILES) | AlphaScreen HuR-RNA complex signal Z-score
O=C(CCCN1CC=C(n2c(=O)[nH]c3ccccc32)CC1)c1ccc(F)cc1 | 0.552
C#CCCCCCCCCCCCC(O)CC(O)CO (stereo not drawn) | 1.14
c1ccc(C2CN3CCSC3=N2)cc1 (stereo not drawn) | 2.34
Oc1c(I)cc(I)c2cccnc12 | -3.49
COc1ccc(-c2cc(=O)c3c(O)cc(O)cc3o2)cc1O | 1.77
COc1cc(-c2coc3cc(O)c(OC)c(O)c3c2=O)cc(O)c1OC | 1.48
